In PMC7948415 one finds binding data, which are given here for two molecules.

Experiment [1] addresses albicin (Anopheles albimanus). Kind of experiment: SEC; Superdex 75 gel filtration of the purified recombinant SG7 proteins; both purified.
Experiment [2] has as its target SG7.AF (Anopheles freeborni) (UniProt C0HMB5). Described as above.

No constants are given. Whether binding was seen depends on the method and setting.

B1: albicin (protein, UniProt A0A1Y9G8D0 27-142)
chain: ANNHIRTVLKLFRTIDLDDSKKSFYLTAAKYGIQTQLREPIIRIVGGYLPSTKLSEACVKNMISEVYEIEGDFYSKFSYACEDHAPYSVECLEDARDDYLTQLVELFKETKKCLRE
B1: in experiment [1], the binding result is recorded as “no binding”.

B2: SG7.AF (protein, UniProt C0HMB5 1-119)
chain: ARKHVQELLKTFRRIDFDETRKSVYLQSAKFGVQSQLREPLTKKVLNYWDDVKLSKTCLDRMVTKVNDVKETFYAGFSYACESHNQYSVDCLEAAKPSYLTALGEIRGETEKCLTTRLK
B2: the binding result in experiment [2] is listed as “no binding”.
